The target of data set [1] is MITF DNA-binding domain K243Q K350Q (UniProt Q08874). Briefly: fluorescence anisotropy. The conditions noted are these: FA: 10 mM Tris/HCl pH 7.5, 300 mM NaCl, 0.01% Triton X-100, 0.1 mg/mL BSA, 1.33 nM DNA, 25 C, 5 min; recombinant protein; residues 287-403; protein details: His (Ni-NTA purified, pETM-11 vector); label: 3'-fluorescein on strand 1.
Data set [2] has as its target MITF DNA-binding domain WT (bHLH-LZ) (UniProt Q08874). Briefly: fluorescence anisotropy. The conditions noted are these: FA: 10 mM Tris/HCl pH 7.5, 300 mM NaCl, 0.01% Triton X-100, 0.1 mg/mL BSA, 1.33 nM DNA, 25 C, 5 min; recombinant protein; residues 287-403; protein details: His (Ni-NTA purified, pETM-11 vector); label: 3'-fluorescein on strand 1.
Data set [3] deals with MITF DNA-binding domain K243R K350R (UniProt Q08874). The experiment in a line: fluorescence anisotropy. The conditions noted are these: FA: 10 mM Tris/HCl pH 7.5, 300 mM NaCl, 0.01% Triton X-100, 0.1 mg/mL BSA, 1.33 nM DNA, 25 C, 5 min; recombinant protein; residues 287-403; protein details: His (Ni-NTA purified, pETM-11 vector); label: 3'-fluorescein on strand 1; scale: fold lower affinity than WT protein on same site.

The chains behind the UniProt entries cited, without tags or fusion partners. Residues count along the entry.
UniProt Q08874, 287-403 K350Q: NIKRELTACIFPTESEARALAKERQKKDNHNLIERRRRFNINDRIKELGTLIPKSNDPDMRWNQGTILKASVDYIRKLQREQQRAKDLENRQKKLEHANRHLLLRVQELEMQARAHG
UniProt Q08874, 287-403: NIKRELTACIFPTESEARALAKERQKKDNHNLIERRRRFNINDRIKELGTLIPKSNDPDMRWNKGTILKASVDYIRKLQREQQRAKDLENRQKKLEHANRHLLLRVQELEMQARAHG
UniProt Q08874, 287-403 K350R: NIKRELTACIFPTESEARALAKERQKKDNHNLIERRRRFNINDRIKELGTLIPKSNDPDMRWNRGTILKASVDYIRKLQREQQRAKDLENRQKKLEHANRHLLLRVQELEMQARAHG

Data set [4] concerns the target MITF DNA-binding domain K243Q K350Q (UniProt Q08874). The experiment in a line: EMSA. The conditions noted are these: ~256-fold more salmon sperm DNA needed to compete than for WT/K243R; EMSA: 25 mM HEPES pH 7.4, 150 mM KCl, 10% glycerol, 200 ug/ml BSA, 5 uM DTT, 20 min, 6% native gel; recombinant protein; residues 287-403; protein details: His (Ni-NTA purified, pETM-11 vector); label: 32P (alpha-32P-dCTP, both ends).

Data set [5] concerns the target MITF DNA-binding domain WT (bHLH-LZ) (UniProt Q08874). Briefly: EMSA. To be noted: EMSA: 25 mM HEPES pH 7.4, 150 mM KCl, 10% glycerol, 200 ug/ml BSA, 5 uM DTT, 20 min, 6% native gel; recombinant protein; residues 287-403; protein details: His (Ni-NTA purified, pETM-11 vector); label: 32P (alpha-32P-dCTP, both ends).
Data set [6] has as its target MITF DNA-binding domain K243R K350R (UniProt Q08874). Briefly: EMSA. To be noted: EMSA: 25 mM HEPES pH 7.4, 150 mM KCl, 10% glycerol, 200 ug/ml BSA, 5 uM DTT, 20 min, 6% native gel; recombinant protein; residues 287-403; protein details: His (Ni-NTA purified, pETM-11 vector); label: 32P (alpha-32P-dCTP, both ends).

For some of these results: The comparison behind a weaker result is the experiment's own reference, which may not be listed here. For some of these results: The exact form of at least one protein or probe is not confirmed. For some of these results: At least one verdict rests on a figure or table, not on a statement of the authors. For some of these results: Whether high values mean tight binding is not given here for every scale.

Turning to “GAGATCACGACTTGAC (double strand) [HS (half-site, mutated CLEAR box) FA probe]”, the binding result in data set [1] and in data set [2] was “binds more weakly” each time. The binding signal in data set [3] was found to be 4.

“GAGACCACGTGTTGAC (double strand) [E-box FA probe]”: the binding result in data set [2] is “binds”.

Turning to “CTAGACTTGTGGAGATCACGTGATGACTTCCTGATTCCT (double strand) [TCACGTGA EMSA probe]”, the binding result in data set [4], in data set [5] and in data set [6] was “binds” throughout.

(Values after PMC7427332, “Tuning Transcription Factor Availability through Acetylation-Mediated Genomic Redistribution”.)
